Results taken from PubChem BioAssay AID540276 (National Center for Advancing Translational Sciences (NCATS), 2011).
Out of some 300,000 compounds screened, about 5,400 (1.8%) were called active. Inconclusive means that the source gave no clear call. Such entries were picked first, then a sample of the others. Calls follow the shape of the full dose curve; tested in HEK293 cells. A potency beside an inconclusive call is a rough fit, not a confirmed value.

test: qHTS for inhibitors of binding or entry into cells for Marburg Virus; conditions: Marburg virus pseudotyped entry inhibition, cell reporter; series mostly up to 37.8 µM
Potency is read from the fitted curve at half-maximal effect.

SMILES | Potency
COc1cc(/C=C/c2nc(C#N)c(NCCc3ccccc3)o2)cc(OC)c1OC | inconclusive: 14.1 µM [inhibitor, partial curve, poor fit]
O=C(/C=C/c1ccco1)N(Cc1ccc(Cl)cc1)C1CCS(=O)(=O)C1 (centres undefined) | inactive
CCOc1ccccc1NC(=O)C1CCCCN1S(=O)(=O)c1ccc(F)cc1 (centres undefined) | inconclusive: 20.6 µM [inhibitor, single point]
Cc1ccc(C)c(NC(=O)c2nn(C)c3c2CS(=O)(=O)c2ccccc2-3)c1 | inactive
CC(C)(C)C1CCc2c(sc3nnn(CCOc4ccccc4)c(=O)c23)C1 (centres undefined) | inconclusive: 12.6 µM [activator, single point]
Cc1cccc(C)c1NC(=O)CSc1nc2[nH]c(=O)cc(O)c2s1 | inconclusive: 4.47 µM [inhibitor, single point]
Cc1cc(C)nc(SCc2csc(N)n2)n1 | inactive
Cc1cc(C)c2c(N)c(C(=O)c3ccccc3Cl)sc2n1 | inconclusive: 6.31 µM [inhibitor, single point]
O=C(OCc1nnc(-c2ccccc2)o1)c1ccc2c(c1)OCCO2 | inconclusive: 1.41 µM [activator, single point]
Cc1nc(NC2=NCN(Cc3ccco3)CN2)nc2ccccc12 | inactive
CCCNC(=S)NC1CC2CCCC(C1)N2CC(C)C (centres undefined) | inconclusive: 1.03 µM [inhibitor, partial curve]
O=C(CSc1nc(-c2ccc(F)cc2)[nH]c1-c1ccccc1)Nc1ccccc1 | inconclusive: 35.5 µM [inhibitor, partial curve, poor fit]
O=[N+]([O-])c1cccnc1S(=O)(=O)c1ccccc1 | inconclusive: 17.8 µM [inhibitor, partial curve, poor fit]
Cc1ccc(C)c(NC(=S)c2ccccn2)c1 | inactive
COc1ccc(CC(=O)NNC(=O)c2ccccn2)cc1 | inconclusive: 1 µM [activator, partial curve, poor fit]
Cc1ccc(Nc2nc(=O)c3cccnc3s2)c(Br)c1 | inconclusive: 1.12 µM [inhibitor, full curve, poor fit]
O=[N+]([O-])c1ccc(COc2ccc(-c3[nH]ncc3-c3ccc(Cl)cc3)c(O)c2)cc1 | inconclusive: 35.5 µM [inhibitor, single point]
Cc1cc(NS(=O)(=O)c2ccc(NC(=O)C(F)(F)F)cc2)nc(C)n1 | inconclusive: 22.4 µM [inhibitor, single point]
CCOC(=O)n1c(=O)n(Cc2ccc(Cl)c(Cl)c2)c2ccccc21 | inconclusive: 17.8 µM [inhibitor, partial curve, poor fit]

A draw from above in order of formula weight, ascending:
SMILES | Potency
Cc1ccc(C)c(NC(=S)c2ccccn2)c1 | inactive
CCCNC(=S)NC1CC2CCCC(C1)N2CC(C)C (centres undefined) | inconclusive: 1.03 µM [inhibitor, partial curve]
COc1cc(/C=C/c2nc(C#N)c(NCCc3ccccc3)o2)cc(OC)c1OC | inconclusive: 14.1 µM [inhibitor, partial curve, poor fit]
